Laboratory results reported in the supplement of paper PMC3334620.
Over roughly 33,000 sequences, “E-score (-0.5 to 0.5)” has its median near -0.015; the highest 2% begin near 0.3. This is one part of the list.

What follows are sequences tested against T1, Abf1 (UniProt P14164) (assay: PBM E-score (8-mer binding enrichment) (E-score (-0.5 to 0.5)); higher = stronger / more preferred TF binding). Settings: protein concentration: 200 nM; construct: GST-full length.
T1 sequence: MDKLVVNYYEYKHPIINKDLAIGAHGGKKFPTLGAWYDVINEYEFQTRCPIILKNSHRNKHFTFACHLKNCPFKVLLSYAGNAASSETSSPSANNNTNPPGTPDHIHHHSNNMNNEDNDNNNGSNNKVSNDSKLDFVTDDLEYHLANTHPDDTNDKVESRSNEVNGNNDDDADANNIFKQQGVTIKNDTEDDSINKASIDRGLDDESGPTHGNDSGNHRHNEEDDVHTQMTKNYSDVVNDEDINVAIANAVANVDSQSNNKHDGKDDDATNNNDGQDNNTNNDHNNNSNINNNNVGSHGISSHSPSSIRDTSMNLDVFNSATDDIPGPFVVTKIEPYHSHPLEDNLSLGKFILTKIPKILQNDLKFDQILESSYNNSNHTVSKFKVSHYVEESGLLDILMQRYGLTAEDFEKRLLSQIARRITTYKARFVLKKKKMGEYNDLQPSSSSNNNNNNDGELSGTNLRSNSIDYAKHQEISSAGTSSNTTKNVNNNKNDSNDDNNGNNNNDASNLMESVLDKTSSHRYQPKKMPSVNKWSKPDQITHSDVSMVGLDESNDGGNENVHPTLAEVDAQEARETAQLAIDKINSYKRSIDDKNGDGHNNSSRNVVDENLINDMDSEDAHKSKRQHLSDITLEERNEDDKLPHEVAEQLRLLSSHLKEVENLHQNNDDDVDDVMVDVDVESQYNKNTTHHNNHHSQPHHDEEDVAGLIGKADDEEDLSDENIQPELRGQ
Protocol: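 Universal 'all 10-mer' protein binding microarrays (Agilent AMADID 015681) probed with GST-tagged S. cerevisiae TFs (full-length or DBD) made by in vitro transcription/translation (PURExpress), about 100-200 nM. Bound TF was detected with fluorescent anti-GST. Each ungapped 8-mer (which stands for itself and its reverse complement) is scored by the PBM enrichment score (E-score), a modified Wilcoxon-Mann-Whitney statistic from -0.5 to +0.5, computed with the Universal PBM Analysis Suite. Scale: above 0.35 generally sequence-specific binding.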

Sequence | PBM E-score
GATGCTGA | -0.123
CCAACACG | 0.0481
GCCTGTCC | -0.144
CGGACGAG | 0.191
AATGAATA | 0.0115
GTACCGCA | 0.0867
ACTAACCT | 0.155
CTTACCAA | -0.0633
CTATACCC | -0.104
TGTCACAA | 0.225
CACCTAGC | -0.132
GTGATATA | 0.395
ACTGAGTC | -0.0716
ATGAAGCC | 0.0793
TCTTCACA | 0.162
CGCACAAC | -0.0584
ATCTCCGA | 0.124
ATCCCGGG | -0.0967
CCGAGTAG | -0.188
CAGCTGAA | -0.0697
AGGAATTG | 0.0611
GGCCGCGA | -0.174
GAAGCGTA | -0.0943
CGGTTATA | -0.00597
CTGCCCGC | -0.0714

Sequence | PBM E-score
GCACGGGA | 0.0185
GACCTTTA | 0.0335
AATCTATC | 0.0351
AACTGGAT | 0.0313
ACTGAGGC | -0.112
CTTATCCC | -0.0767
CGTCGGGC | -0.072
GAACTAAC | 0.11
CAGTGCCC | 0.00351
AATACTCC | -0.0811
ATCCATCA | -0.0425
GGTCAGAC | -0.0844
GCCTCTAA | -0.0508
CGATAACC | -0.00449
CCTTTCCA | -0.0408
ATTTTGTC | 0.172
GGCGAGAC | -0.0463
ACGCTAAA | 0.137
ACCTTCAT | -0.0336
GGCCATCA | -0.255
GATCTGAA | 0.0479
CAGTCGAA | -0.0758
AAGTTATT | 0.0165
CCTTTACG | 0.0646
AATGGAAT | -0.0193

Sequence | PBM E-score
CTGAAGCC | -0.125
GATGTCTA | 0.213
CCTAGGAA | -0.123
ATAAAGTG | 0.18
ATAGTTTC | 0.196
CAATGTGG | -0.0134
ACTAGATA | 0.0976
CAGTACGC | 0.0181
CTGACTCA | -0.0203
ACGTCGCG | 0.23
GTCATAAA | 0.195
GACGATCA | 0.226
CAAGTAGG | -0.217
GACCTCTA | 0.0658
AAACACGC | 0.0874
CAACTCCA | -0.163
AATTGGAT | 0.192
AACATCGC | 0.0589
GCTTTGGA | 0.0202
CGGGACTC | -0.159
ATCCCTGG | -0.0203
ATTAAAAT | 0.158
CTTATTCA | -0.0273
TAATAAGA | 0.128
AATAACTA | 0.124

Individual results from the results shown:
In PBM E-score, CTGAAGCC has the entry -0.125
In PBM E-score, CTGACTCA has the entry -0.0203
In PBM E-score, ACGTCGCG has the entry 0.23
In PBM E-score, CGGGACTC has the entry -0.159
In PBM E-score, ACTAGATA has the entry 0.0976
In PBM E-score, ATTAAAAT has the entry 0.158

(cont.)

Sequence | PBM E-score
CGTCGAGA | 0.131
CGGAGTAA | 0.0152
GACGTGGC | -0.121
AGAAATAT | 0.148
AAAACATT | 0.0563
CCATTAAG | -0.239
TCCCACAA | -0.0942
CGGTAGTC | -0.138
GCAATGAC | 0.245
AGGATAAT | 0.174
GAAGTCTA | -0.136
ACCAGGCG | -0.17
ATGCAAGA | -0.00898
TGTGCGAA | 0.111
AGCATCGA | 0.0175
AACATCTT | -0.103
ATTAACGG | 0.126
GTTGAGAA | 0.098
AGGGGGTC | -0.381
ATGGCCTA | -0.0511
GACGTGCC | -0.0215
TCCCTGCA | -0.169
GACCAATC | 0.00831
GTACTGCA | -0.101
ACTGCTCT | -0.0133

Sequence | PBM E-score
GTGTCAGA | 0.0238
CCCGGGAG | -0.228
CCCCAACC | -0.154
GGACGTCC | -0.0932
AATAGTGC | 0.0751
CATAAGTC | -0.00466
CTACATCC | 0.036
CAGTACAC | -0.0347
GAAATGCC | -0.092
AGAAAGAC | -0.0404
CAGAACAG | -0.237
GATTTCGA | -0.0714
ACTAAGAG | -0.00955
AGTAATAA | 0.233
AGCGGTGA | 0.23
AGGCCGTA | 0.231
CGCATGCA | -0.0509
GTATGTCA | 0.394
GAGCAGCC | -0.0551
TCTAAACA | 0.0876
AGCCGTAA | 0.193
CCTGCTAA | 0.0331
GCGCACCA | -0.024
ACGCGGCC | -0.107
CGGAAGGC | -0.314

Sequence | PBM E-score
ATAAGAGC | -0.0255
GAAGACCA | -0.014
GAGTAGAA | -0.0575
ACAGCCAG | -0.107
ATTCATCA | 0.181
ACTCTTCC | -0.28
AACACTGG | -0.2
CGATGGAA | 0.079
ACGCAGCG | -0.162
CAGCCCGA | -0.277
AGGTAGTA | 0.0867
CTTACGAA | 0.216
ATGCGACG | 0.199
AGTCATTC | 0.198
AGGAACAC | -0.0807
AACCTACA | 0.0827
CACCTAGA | -0.0355
TACTCGGA | 0.131
GAGGGCAA | -0.0873
TACTGGCA | 0.0332
ACAAGATC | -0.0051
AAGAGGAT | -0.0628
AAAATTGT | 0.226
CTATGCAG | -0.0268
CGCGATGC | -0.0203

Sequence | PBM E-score
CAAATATA | 0.00159
CAGGACGC | -0.00469
TGTGTCAA | -0.00278
CATATCGG | 0.0102
AGGGTCCG | -0.249
ACAGGTGA | 0.103
AGTTCCCA | 0.0996
CTTCTCCA | -0.223
GCCCGCGA | -0.105
CAGGGGGC | -0.393
AGCGGTAG | -0.0407
CCGCGTTC | -0.031
GACGATGA | 0.273
AAAATCGG | -0.00458
ACCTGTAT | -0.183
GTCCTGGA | -0.0142
ACTGGCCG | -0.142
AGGATGTA | 0.0613
GACGTTTA | 0.0137
CTGTCTAC | -0.0226
GAAAAATC | 0.21
ACAATCTC | 0.0746
